Results deposited as PubChem BioAssay AID1224826 (NIAID, 2016)

- Screen: 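Genes that change LPS-induced Tnf promoter activity in mouse macrophages when knocked down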 (primary screen)
- Cell system: RAW264.7 G9 macrophages from mouse bearing reporters for p65 (GFP) and the Tnf promoter (mCherry)
- Reagent: siRNA pool against mouse genes, 100 nM
- Time to read-out: 16 h of LPS stimulation, after 2 days of siRNA transfection
- Treatment: bacterial lipopolysaccharide (Salmonella minnesota R595), 10 ng/ml
- Measured: 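Imaged Tnf reporter mCherry in nuclei, minus background, normalised per plate to the median and expressed as robust z-scores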
- Direction: Tnf reporter robust z-score: higher = stronger Tnf promoter reporter signal after LPS
- Hit rule: 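Called active when robust z-score is at most -1.3, matching the median of the Tlr4 knock-down control, or over 3; control wells and wells with under 50 cells never active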
- Calls: active = Tnf reporter clearly lowered or raised; inactive = no clear change in Tnf reporter
This is one part, drawn at random, of about 17,000 deposited reagents. Over the whole deposit, about 1,110 (6.6%) are marked active. 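Active means lowered or raised reporter signal; replicate intensities are raw and not normalised per plate.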 Entries without a mark were called inactive. A reagent listed more than once was tested more than once; the source does not tell the runs apart. Not all columns of the deposit are shown. Reagent sequences are not shown.

Depletion of Zfp979 (zinc finger protein 979) came out at: Tnf reporter robust z-score -0.28; fewer than 50 cells in well enough cells in well.
For En2 (engrailed 2), the entry reads Tnf reporter robust z-score 0.56; fewer than 50 cells in well enough cells in well.
Pth2r (parathyroid hormone 2 receptor) showed Tnf reporter robust z-score 0.43; fewer than 50 cells in well enough cells in well.
After knock-down of Lce1c (late cornified envelope 1C), the record shows Tnf reporter robust z-score 0.65; fewer than 50 cells in well enough cells in well.
Knock-down of Lce1c (late cornified envelope 1C) gave: Tnf reporter robust z-score 0.31; fewer than 50 cells in well enough cells in well.
After knock-down of Ube2l6 (ubiquitin-conjugating enzyme E2L 6), the screen gave Tnf reporter robust z-score 0.03; fewer than 50 cells in well enough cells in well.
H2-Q6 (histocompatibility 2, Q region locus 6) scored Tnf reporter robust z-score -0.72; fewer than 50 cells in well enough cells in well.
After knock-down of Egf (epidermal growth factor), the screen gave Tnf reporter robust z-score -1.03; fewer than 50 cells in well enough cells in well.
After knock-down of Ptk7 (PTK7 protein tyrosine kinase 7) the results were Tnf reporter robust z-score -0.45; fewer than 50 cells in well enough cells in well.
Silencing of Sub1 (SUB1 homolog, transcriptional regulator) came out at: Tnf reporter robust z-score 0.63; fewer than 50 cells in well enough cells in well.
Dusp21 (dual specificity phosphatase 21) scored fewer than 50 cells in well fewer than 50 cells per well; well left out of calls.
Sel1l (sel-1 suppressor of lin-12-like (C. elegans)) scored Tnf reporter robust z-score 0.05; fewer than 50 cells in well enough cells in well.
Silencing of Spon1 (spondin 1, (f-spondin) extracellular matrix protein) gave: Tnf reporter robust z-score 3.48 (active); fewer than 50 cells in well enough cells in well.
Against Gpsm2 (G-protein signalling modulator 2 (AGS3-like, C. elegans)) the deposit lists Tnf reporter robust z-score 1.39; fewer than 50 cells in well enough cells in well.
Against Tfec (transcription factor EC) the deposit lists Tnf reporter robust z-score -0.55; fewer than 50 cells in well enough cells in well.
After knock-down of A730013G03Rik (RIKEN cDNA A730013G03 gene), the screen gave Tnf reporter robust z-score 3.97 (active); fewer than 50 cells in well enough cells in well.
For Nmb (neuromedin B), the values are Tnf reporter robust z-score -0.53; fewer than 50 cells in well enough cells in well.
Against Atp2c1 (ATPase, Ca++-sequestering), the entry reads Tnf reporter robust z-score 0.01; fewer than 50 cells in well enough cells in well.
Silencing of Phykpl (5-phosphohydroxy-L-lysine phospholyase) resulted in: fewer than 50 cells in well fewer than 50 cells per well; well left out of calls.
After knock-down of Dhrs13 (dehydrogenase/reductase 13) the results were Tnf reporter robust z-score 0.17; fewer than 50 cells in well enough cells in well.
With knock-down of Cdk11b (cyclin dependent kinase 11B) the results were Tnf reporter robust z-score -0.66; fewer than 50 cells in well enough cells in well.

2 entries from above, reformatted.
gene,Tnf reporter robust z-score,fewer than 50 cells in well
Lce1c (late cornified envelope 1C),0.65,enough cells in well
Lce1c (late cornified envelope 1C),0.31,enough cells in well
